Measurements reported in PMC8206213, “An L-2-hydroxyglutarate biosensor based on specific transcriptional regulator LhgR” (Nature Communications, 2021).

Assay: Emission and excitation spectra of purified LHGFR with or without 100 μM L-2-HG
Assay type: binding
Conditions: for Fluorescence intensity, emission spectrum: Suppl. Fig. 8b

SMILES: O=C(O)CC[C@H](O)C(=O)O [L-2-HG, L-2-Hydroxyglutarate]
- Fluorescence intensity, emission spectrum (emission 462 nm): 30537
- Fluorescence intensity, emission spectrum (emission 464 nm): 47571
- Fluorescence intensity, emission spectrum (emission 466 nm): 70414
- Fluorescence intensity, emission spectrum (emission 468 nm): 114105
- Fluorescence intensity, emission spectrum (emission 470 nm): 213662
- Fluorescence intensity, emission spectrum (emission 472 nm): 306222
- Fluorescence intensity, emission spectrum (emission 474 nm): 432757
- Fluorescence intensity, emission spectrum (emission 476 nm): 619160
- Fluorescence intensity, emission spectrum (emission 478 nm): 766537
- Fluorescence intensity, emission spectrum (emission 480 nm): 951628
- Fluorescence intensity, emission spectrum (emission 482 nm): 1.14E+06
- Fluorescence intensity, emission spectrum (emission 484 nm): 1.29E+06
- Fluorescence intensity, emission spectrum (emission 486 nm): 1.48E+06
- Fluorescence intensity, emission spectrum (emission 488 nm): 1.66E+06
- Fluorescence intensity, emission spectrum (emission 490 nm): 1.80E+06
- Fluorescence intensity, emission spectrum (emission 492 nm): 1.95E+06
- Fluorescence intensity, emission spectrum (emission 494 nm): 2.01E+06
- Fluorescence intensity, emission spectrum (emission 496 nm): 2.00E+06
- Fluorescence intensity, emission spectrum (emission 498 nm): 1.97E+06
- Fluorescence intensity, emission spectrum (emission 500 nm): 1.92E+06
- Fluorescence intensity, emission spectrum (emission 502 nm): 1.85E+06
- Fluorescence intensity, emission spectrum (emission 504 nm): 1.80E+06
- Fluorescence intensity, emission spectrum (emission 506 nm): 1.75E+06
- Fluorescence intensity, emission spectrum (emission 508 nm): 1.74E+06
- Fluorescence intensity, emission spectrum (emission 510 nm): 1.75E+06
- Fluorescence intensity, emission spectrum (emission 512 nm): 1.80E+06
- Fluorescence intensity, emission spectrum (emission 514 nm): 1.94E+06
- Fluorescence intensity, emission spectrum (emission 516 nm): 2.22E+06
- Fluorescence intensity, emission spectrum (emission 518 nm): 2.55E+06
- Fluorescence intensity, emission spectrum (emission 520 nm): 2.90E+06
- Fluorescence intensity, emission spectrum (emission 522 nm): 3.13E+06
- Fluorescence intensity, emission spectrum (emission 524 nm): 3.36E+06
- Fluorescence intensity, emission spectrum (emission 526 nm): 3.46E+06
- Fluorescence intensity, emission spectrum (emission 528 nm): 3.50E+06
- Fluorescence intensity, emission spectrum (emission 530 nm): 3.47E+06
- Fluorescence intensity, emission spectrum (emission 532 nm): 3.39E+06
- Fluorescence intensity, emission spectrum (emission 534 nm): 3.28E+06
- Fluorescence intensity, emission spectrum (emission 536 nm): 3.09E+06
- Fluorescence intensity, emission spectrum (emission 538 nm): 2.82E+06
- Fluorescence intensity, emission spectrum (emission 540 nm): 2.57E+06
- Fluorescence intensity, emission spectrum (emission 542 nm): 2.23E+06
- Fluorescence intensity, emission spectrum (emission 544 nm): 2.05E+06
- Fluorescence intensity, emission spectrum (emission 546 nm): 1.84E+06
- Fluorescence intensity, emission spectrum (emission 548 nm): 1.69E+06
- Fluorescence intensity, emission spectrum (emission 550 nm): 1.56E+06
- Fluorescence intensity, emission spectrum (emission 552 nm): 1.46E+06
- Fluorescence intensity, emission spectrum (emission 554 nm): 1.36E+06
- Fluorescence intensity, emission spectrum (emission 556 nm): 1.29E+06
- Fluorescence intensity, emission spectrum (emission 558 nm): 1.21E+06
- Fluorescence intensity, emission spectrum (emission 560 nm): 1.14E+06
- Fluorescence intensity, emission spectrum (emission 562 nm): 1.06E+06
- Fluorescence intensity, emission spectrum (emission 564 nm): 976950
- Fluorescence intensity, emission spectrum (emission 566 nm): 905109
- Fluorescence intensity, emission spectrum (emission 568 nm): 842340
- Fluorescence intensity, emission spectrum (emission 570 nm): 781562
- Fluorescence intensity, emission spectrum (emission 572 nm): 730703
- Fluorescence intensity, emission spectrum (emission 574 nm): 685106
- Fluorescence intensity, emission spectrum (emission 576 nm): 629037
- Fluorescence intensity, emission spectrum (emission 578 nm): 595845
- Fluorescence intensity, emission spectrum (emission 580 nm): 538248
- Fluorescence intensity, excitation spectrum (excitation 380 nm, Suppl. Fig. 8c): 59827
- Fluorescence intensity, excitation spectrum (excitation 380 nm, Suppl. Fig. 8d): 67353
- Fluorescence intensity, excitation spectrum (excitation 382 nm, Suppl. Fig. 8c): 60507
- Fluorescence intensity, excitation spectrum (excitation 382 nm, Suppl. Fig. 8d): 66949
- Fluorescence intensity, excitation spectrum (excitation 384 nm, Suppl. Fig. 8c): 64315
- Fluorescence intensity, excitation spectrum (excitation 384 nm, Suppl. Fig. 8d): 71059
- Fluorescence intensity, excitation spectrum (excitation 386 nm, Suppl. Fig. 8c): 70309
- Fluorescence intensity, excitation spectrum (excitation 386 nm, Suppl. Fig. 8d): 79195
- Fluorescence intensity, excitation spectrum (excitation 388 nm, Suppl. Fig. 8c): 80482
- Fluorescence intensity, excitation spectrum (excitation 388 nm, Suppl. Fig. 8d): 86523
- Fluorescence intensity, excitation spectrum (excitation 390 nm, Suppl. Fig. 8c): 85482
- Fluorescence intensity, excitation spectrum (excitation 390 nm, Suppl. Fig. 8d): 97353
- Fluorescence intensity, excitation spectrum (excitation 392 nm, Suppl. Fig. 8c): 90882
- Fluorescence intensity, excitation spectrum (excitation 392 nm, Suppl. Fig. 8d): 97855
- Fluorescence intensity, excitation spectrum (excitation 394 nm, Suppl. Fig. 8c): 96719
- Fluorescence intensity, excitation spectrum (excitation 394 nm, Suppl. Fig. 8d): 104593
- Fluorescence intensity, excitation spectrum (excitation 396 nm, Suppl. Fig. 8c): 99900
- Fluorescence intensity, excitation spectrum (excitation 396 nm, Suppl. Fig. 8d): 111934
- Fluorescence intensity, excitation spectrum (excitation 398 nm, Suppl. Fig. 8c): 103880
- Fluorescence intensity, excitation spectrum (excitation 398 nm, Suppl. Fig. 8d): 116619
- Fluorescence intensity, excitation spectrum (excitation 400 nm, Suppl. Fig. 8c): 111369
- Fluorescence intensity, excitation spectrum (excitation 400 nm, Suppl. Fig. 8d): 125092
- Fluorescence intensity, excitation spectrum (excitation 402 nm, Suppl. Fig. 8c): 121042
- Fluorescence intensity, excitation spectrum (excitation 402 nm, Suppl. Fig. 8d): 132687
- Fluorescence intensity, excitation spectrum (excitation 404 nm, Suppl. Fig. 8c): 130382
- Fluorescence intensity, excitation spectrum (excitation 404 nm, Suppl. Fig. 8d): 143898
- Fluorescence intensity, excitation spectrum (excitation 406 nm, Suppl. Fig. 8c): 141769
- Fluorescence intensity, excitation spectrum (excitation 406 nm, Suppl. Fig. 8d): 155785
- Fluorescence intensity, excitation spectrum (excitation 408 nm, Suppl. Fig. 8c): 161073
- Fluorescence intensity, excitation spectrum (excitation 408 nm, Suppl. Fig. 8d): 180367
- Fluorescence intensity, excitation spectrum (excitation 410 nm, Suppl. Fig. 8c): 200905
- Fluorescence intensity, excitation spectrum (excitation 410 nm, Suppl. Fig. 8d): 221847
- Fluorescence intensity, excitation spectrum (excitation 412 nm, Suppl. Fig. 8c): 233102
- Fluorescence intensity, excitation spectrum (excitation 412 nm, Suppl. Fig. 8d): 257316
- Fluorescence intensity, excitation spectrum (excitation 414 nm, Suppl. Fig. 8c): 260639
- Fluorescence intensity, excitation spectrum (excitation 414 nm, Suppl. Fig. 8d): 288407
- Fluorescence intensity, excitation spectrum (excitation 416 nm, Suppl. Fig. 8c): 278365
- Fluorescence intensity, excitation spectrum (excitation 416 nm, Suppl. Fig. 8d): 304618
- Fluorescence intensity, excitation spectrum (excitation 418 nm, Suppl. Fig. 8c): 299529
- Fluorescence intensity, excitation spectrum (excitation 418 nm, Suppl. Fig. 8d): 328450
- Fluorescence intensity, excitation spectrum (excitation 420 nm, Suppl. Fig. 8c): 311845
- Fluorescence intensity, excitation spectrum (excitation 420 nm, Suppl. Fig. 8d): 348322
- Fluorescence intensity, excitation spectrum (excitation 422 nm, Suppl. Fig. 8c): 325972
- Fluorescence intensity, excitation spectrum (excitation 422 nm, Suppl. Fig. 8d): 363848
- Fluorescence intensity, excitation spectrum (excitation 424 nm, Suppl. Fig. 8c): 345413
- Fluorescence intensity, excitation spectrum (excitation 424 nm, Suppl. Fig. 8d): 384528
- Fluorescence intensity, excitation spectrum (excitation 426 nm, Suppl. Fig. 8c): 362280
- Fluorescence intensity, excitation spectrum (excitation 426 nm, Suppl. Fig. 8d): 399375

A unit is not stated for every read-out.
